Results from publication PMC4550699.
No constants are given. Whether binding was seen depends on the method and setting. Binding calls can cover weak binding; strength is not graded here.

Amino acid sequences for entries named in this document (tags omitted). A change or cut given only in a name is not applied to a line headed by its entry.
UniProt Q9ZW35: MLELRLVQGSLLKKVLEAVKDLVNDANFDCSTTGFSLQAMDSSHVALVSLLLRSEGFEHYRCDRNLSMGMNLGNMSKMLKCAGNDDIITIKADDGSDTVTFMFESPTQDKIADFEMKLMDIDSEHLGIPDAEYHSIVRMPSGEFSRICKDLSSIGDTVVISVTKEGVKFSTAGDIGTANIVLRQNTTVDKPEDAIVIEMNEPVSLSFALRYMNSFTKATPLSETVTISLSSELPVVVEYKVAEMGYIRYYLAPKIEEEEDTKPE
UniProt Q9M7Q7: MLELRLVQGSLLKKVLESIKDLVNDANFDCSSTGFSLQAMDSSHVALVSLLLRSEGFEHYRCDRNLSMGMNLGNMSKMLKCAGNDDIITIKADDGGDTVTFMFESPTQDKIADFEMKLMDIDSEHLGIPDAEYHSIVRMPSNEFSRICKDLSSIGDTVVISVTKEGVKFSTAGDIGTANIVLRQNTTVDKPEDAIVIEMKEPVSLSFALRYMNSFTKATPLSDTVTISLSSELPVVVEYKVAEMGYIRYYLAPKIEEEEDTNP
UniProt P42752: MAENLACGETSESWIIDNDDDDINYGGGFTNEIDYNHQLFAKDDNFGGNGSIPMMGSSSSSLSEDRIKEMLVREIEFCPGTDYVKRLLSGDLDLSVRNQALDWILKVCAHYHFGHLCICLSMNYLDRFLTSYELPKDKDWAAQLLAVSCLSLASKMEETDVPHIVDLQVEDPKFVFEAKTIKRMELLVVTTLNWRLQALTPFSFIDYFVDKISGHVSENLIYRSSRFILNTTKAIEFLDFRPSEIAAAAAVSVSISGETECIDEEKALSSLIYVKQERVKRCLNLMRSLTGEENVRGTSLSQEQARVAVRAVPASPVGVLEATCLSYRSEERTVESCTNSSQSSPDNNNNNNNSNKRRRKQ
UniProt Q2V3B2: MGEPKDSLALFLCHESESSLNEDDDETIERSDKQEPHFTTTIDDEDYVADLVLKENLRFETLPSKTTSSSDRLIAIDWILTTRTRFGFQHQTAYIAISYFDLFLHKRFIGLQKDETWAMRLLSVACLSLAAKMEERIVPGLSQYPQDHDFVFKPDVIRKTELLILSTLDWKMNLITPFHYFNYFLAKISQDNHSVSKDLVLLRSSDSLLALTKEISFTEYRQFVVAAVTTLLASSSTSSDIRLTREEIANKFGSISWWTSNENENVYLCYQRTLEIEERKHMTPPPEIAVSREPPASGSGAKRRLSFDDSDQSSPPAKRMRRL
UniProt Q8LGA1: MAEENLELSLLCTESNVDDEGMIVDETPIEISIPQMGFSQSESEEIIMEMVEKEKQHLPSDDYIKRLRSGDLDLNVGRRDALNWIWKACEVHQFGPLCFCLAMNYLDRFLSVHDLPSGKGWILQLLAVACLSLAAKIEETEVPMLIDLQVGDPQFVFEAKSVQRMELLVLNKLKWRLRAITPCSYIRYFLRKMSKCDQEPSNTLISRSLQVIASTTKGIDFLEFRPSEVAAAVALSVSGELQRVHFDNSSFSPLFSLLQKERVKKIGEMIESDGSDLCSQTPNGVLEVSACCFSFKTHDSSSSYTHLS

Experiments:
Assay in all cases: two-hybrid; split-ubiquitin Y2H (MoBiTec transactivating starter kit), yeast NMY51, bait in pDHB1Gateway, prey in pPR3-NGateway; growth on SC-Leu-Trp-His with 10 mM 3-AT and X-gal filter assay; both orientations tested, the target of a row is the bait
[1] = target: PCNA2 (Proliferating Cell Nuclear Antigen 2), split-ubiquitin Y2H fusion (Arabidopsis thaliana) (UniProt Q9ZW35)
[2] = target: PCNA1 (Proliferating Cell Nuclear Antigen 1), split-ubiquitin Y2H fusion (Arabidopsis thaliana) (UniProt Q9M7Q7)
[3] = target: CycD2;1, split-ubiquitin Y2H fusion (Arabidopsis thaliana) (UniProt P42752)
[4] = target: CycD5;1, split-ubiquitin Y2H fusion (Arabidopsis thaliana) (UniProt Q2V3B2)

Row | Substance | binding [1] | binding [2] | binding [3] | binding [4]
1 | CycD4;1, split-ubiquitin Y2H fusion (from UniProt Q8LGA1) | binds | binds |  | 
2 | CycD5;1, split-ubiquitin Y2H fusion (from UniProt Q2V3B2) |  | no binding |  | 
3 | PCNA1 (Proliferating Cell Nuclear Antigen 1), split-ubiquitin Y2H fusion (from UniProt Q9M7Q7 1-263) |  |  | binds | 
4 | PCNA2 (Proliferating Cell Nuclear Antigen 2), split-ubiquitin Y2H fusion (from UniProt Q9ZW35 1-264) |  |  | binds | binds
